PubChem BioAssay AID504764 | Drosophila RNAi Screening Center, 2011

Assay: 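Knock-downs that raise or lower a Notch target reporter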 (primary screen)
System: Drosophila Kc167 cells
Knock-down reagent: long dsRNA against Drosophila genes
Time to read-out: about 5 days (4 days dsRNA, then 24 h after transfection)
Challenge: transfection of constitutively active membrane-tethered Notch lacking the extracellular domain, read 24 h later
Detection: 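Light from a Notch-responsive E(spl)m3 luciferase reporter under active Notch, with control-promoter and no-Notch reporter wells to normalise; raw counts from paired wells a and b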
Direction: induced reporter light, run 1, well a and induced reporter light, run 1, well b: higher = more light from the Notch target reporter with active Notch; control promoter light, run 1, well a and control promoter light, run 1, well b: higher = more light from the viral control promoter (cell number, transfection, viability); uninduced reporter light, run 1, well a: higher = more light from the Notch target reporter without active Notch
Active means: 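Wells with low control signal or poorly matching duplicates excluded; duplicates averaged; per source plate, z beyond ±2 for induced/control log2 ratio or beyond ±1.8 for induced/uninduced marks a hit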
Meaning of the calls: active = modifier hit (raised or lowered Notch signal); inactive = not a hit
In all, the deposit lists about 22,000 reagents; shown is an unselected part of those that have a named target and a result. In the full data, 403 (1.9%) are marked active. 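Unnormalised raw counts per well; ratio z-scores behind the hit calls and whether each hit raises or lowers signal are not deposited.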 A plus sign joins genes that one reagent is predicted to hit. Not given: the amount of reagent.

Gene | amplicon | induced reporter light, run 1, well a | induced reporter light, run 1, well b | control promoter light, run 1, well a | control promoter light, run 1, well b | uninduced reporter light, run 1, well a | call
CG17612 | DRSC00505 | 1.57e5 | 1.63e5 | 1.84e5 | 2.21e5 | 18780 | inactive
Cpr47Ea | DRSC07333 | 1.32e5 | 1.26e5 | 1.32e5 | 1.35e5 | 11845 | inactive
CG13995 | DRSC00907 | 1.44e5 | 1.10e5 | 1.74e5 | 1.89e5 | 10425 | inactive
CG13995 | DRSC02327 | 61560 | 66255 | 70815 | 71210 | 4378 | inactive
CG9498 | DRSC03235 | 2.19e5 | 2.12e5 | 1.95e5 | 2.05e5 | 11742 | inactive
CG7506 | DRSC10860 | 1.67e5 | 1.21e5 | 1.28e5 | 99295 | 16978 | inactive
orb | DRSC17021 | 3455 | 3438 | 3435 | 3590 | 485 | inactive
sll | DRSC16271 | 1.46e5 | 1.53e5 | 1.48e5 | 1.76e5 | 15320 | inactive
CG6675 | DRSC03735 | 46455 | 48670 | 49300 | 35555 | 2765 | inactive
CG3397 | DRSC15487 | 1.22e5 | 1.62e5 | 79950 | 81055 | 9590 | inactive
dpr13 | DRSC06160 | 96085 | 88855 | 93685 | 96710 | 6805 | inactive
dpr13 | DRSC06464 | 73350 | 81975 | 1.00e5 | 1.02e5 | 7350 | inactive
Pect | DRSC02867 | 2.20e5 | 2.73e5 | 2.22e5 | 2.25e5 | 19545 | inactive
Pect | DRSC02868 | 1.48e5 | 1.78e5 | 1.53e5 | 1.86e5 | 15075 | inactive
CG11141 | DRSC06048 | 51595 | 52250 | 45645 | 44090 | 3575 | inactive
LysB | DRSC08673 | 99730 | 1.12e5 | 2.01e5 | 1.26e5 | 5180 | inactive
SP2353 | DRSC07545 | 1.80e5 | 1.41e5 | 1.59e5 | 1.60e5 | 12175 | inactive
Hsp70Bb + Hsp70Bbb | DRSC15885 | 83365 | 1.13e5 | 85440 | 68405 | 8320 | inactive
Pex19 | DRSC02839 | 2.07e5 | 1.99e5 | 1.55e5 | 1.69e5 | 18095 | inactive
Gapdh1 | DRSC07433 | 2.52e5 | 2.20e5 | 2.32e5 | 2.67e5 | 21115 | inactive
CG7333 | DRSC16229 | 1.96e5 | 1.92e5 | 1.64e5 | 1.59e5 | 13900 | inactive
CG11286 | DRSC14293 | 79465 | 78000 | 65490 | 59225 | 5140 | inactive

Continued; the last 6 above are carried over.
Gene | amplicon | induced reporter light, run 1, well a | induced reporter light, run 1, well b | control promoter light, run 1, well a | control promoter light, run 1, well b | uninduced reporter light, run 1, well a | call
SP2353 | DRSC07545 | 1.80e5 | 1.41e5 | 1.59e5 | 1.60e5 | 12175 | inactive
Hsp70Bb + Hsp70Bbb | DRSC15885 | 83365 | 1.13e5 | 85440 | 68405 | 8320 | inactive
Pex19 | DRSC02839 | 2.07e5 | 1.99e5 | 1.55e5 | 1.69e5 | 18095 | inactive
Gapdh1 | DRSC07433 | 2.52e5 | 2.20e5 | 2.32e5 | 2.67e5 | 21115 | inactive
CG7333 | DRSC16229 | 1.96e5 | 1.92e5 | 1.64e5 | 1.59e5 | 13900 | inactive
CG11286 | DRSC14293 | 79465 | 78000 | 65490 | 59225 | 5140 | inactive
CG43127 | DRSC09039 | 1.92e5 | 1.87e5 | 1.70e5 | 1.66e5 | 14100 | inactive
AsnRS-m | DRSC07010 | 1.08e5 | 1.10e5 | 1.08e5 | 1.24e5 | 9142 | inactive
Nse1 | DRSC02147 | 1.03e5 | 1.44e5 | 1.46e5 | 1.65e5 | 14482 | active
Edem2 | DRSC02877 | 1.84e5 | 1.83e5 | 1.68e5 | 2.08e5 | 18440 | inactive
NT1 | DRSC08530 | 1.54e5 | 1.51e5 | 1.57e5 | 1.43e5 | 5500 | inactive
NT1 | DRSC22895 | – | – | – | – | – | inactive
CG12795 | DRSC00354 | 2.05e5 | 1.89e5 | 2.06e5 | 2.24e5 | 13795 | inactive
Dyb | DRSC07208 | 1.91e5 | 2.15e5 | 1.90e5 | 2.08e5 | 15600 | inactive
CG8300 | DRSC18426 | 75750 | 83815 | 41355 | 48010 | 12720 | inactive
CG14564 | DRSC11725 | 1.40e5 | 1.34e5 | 92705 | 88925 | 10820 | inactive
Meics | DRSC11413 | 2.11e5 | 1.61e5 | 2.41e5 | 2.24e5 | 8775 | inactive
CG2247 | DRSC19844 | 2.20e5 | 1.97e5 | 2.19e5 | 2.35e5 | 13030 | inactive
Sgp | DRSC02195 | 1.88e5 | 2.48e5 | 2.05e5 | 2.11e5 | 22050 | inactive
CG17996 + Tsen2 | DRSC02650 | 1.21e5 | 1.18e5 | 1.57e5 | 1.62e5 | 10940 | inactive
CG14420 | DRSC17917 | 1.16e5 | 1.04e5 | 1.50e5 | 1.78e5 | 8985 | inactive
CG10366 | DRSC02046 | 2.38e5 | 2.00e5 | 1.91e5 | 2.17e5 | 15590 | inactive
Gr43a | DRSC06658 | 2.25e5 | 1.60e5 | 2.84e5 | 2.30e5 | 16675 | inactive
Dlip2 | DRSC12346 | 1.56e5 | 1.16e5 | 1.20e5 | 91215 | 9425 | inactive
Rpt6 | DRSC20571 | 1.35e5 | 1.14e5 | 1.01e5 | 57645 | 9255 | inactive
CG13634 | DRSC14635 | 1.39e5 | 2.19e5 | 1.97e5 | 1.56e5 | 14115 | inactive
CG12609 | DRSC19473 | 1.51e5 | 1.39e5 | 1.40e5 | 1.85e5 | 13435 | inactive
wry | DRSC00352 | 1.44e5 | 1.55e5 | 1.31e5 | 1.05e5 | 11160 | inactive
wry | DRSC00456 | 1.57e5 | 1.49e5 | 1.39e5 | 1.23e5 | 10770 | inactive
Sap47 | DRSC16850 | 2.50e5 | 2.88e5 | 3.80e5 | 4.30e5 | 17305 | active
NO66 | DRSC18252 | 1.58e5 | 1.84e5 | 2.09e5 | 2.33e5 | 11260 | inactive
CG8229 | DRSC07114 | 89895 | 1.02e5 | 91535 | 80325 | 8315 | inactive
BORCS7 + CG13430 | DRSC06392 | 1.04e5 | 1.11e5 | 2.01e5 | 2.03e5 | 8588 | inactive
BORCS7 + CG13430 | DRSC06707 | 1.45e5 | 1.61e5 | 2.17e5 | 2.76e5 | 6475 | inactive
